Data reported in patent US20110172296A1, “MODULATION OF TRANSFORMING GROWTH FACTOR-BETA 1 EXPRESSION” (priority 2010, published 2011).
Some results were stated once for a whole list of compounds, not compound by compound. In the oligonucleotide strings, read from the 5' end, every base follows the letter of its sugar. An asterisk marks phosphorothioate; unmarked linkages are phosphodiester. Other units and linkages are bracketed, terminal groups are in braces. A string of capitals states the bases alone. e = 2'-O-(2-methoxyethyl) (MOE); [5mC] = 5-methylcytosine; d = 2'-deoxy (DNA)

Tested on: human TGF-beta1 mRNA
Assay: Antisense inhibition of human TGF-beta1 mRNA in HuVEC cells, single 10 nM dose, Lipofectamine 2000 (Example 2)
Format: cell-based
Settings: threshold lists of Oligo IDs, b145-b151
Protocol: Antisense oligonucleotides targeted to a TGF-beta1 nucleic acid were tested for their effects on TGF-beta1 mRNA in vitro. Cultured HuVEC cells at a density of 5,000 cells per well were transfected using Lipofectamine™ 2000 reagent with 10 nM antisense oligonucleotide for 4 hours. After a recovery period of approximately 24 hours, RNA was isolated from the cells and TGF-beta1 mRNA levels were measured by quantitative real-time PCR. TGF-beta1 mRNA levels were adjusted according to total RNA content, as measured by RIBOGREEN®. Results are presented as percent inhibition of TGF-beta1, relative to untreated control cells.
The chimeric antisense oligonucleotides in Tables 1 and 2 were designed as 2-13-5 MOE gapmers. Antisense molecules with this motif targeting TGF-beta1 are unique, and represent a novel chemical structure for an ASO directed against this target. The gapmers are 20 nucleotides in length, wherein the central gap segments are comprised of thirteen 2′-deoxynucleotides and are flanked on the 5′ side by wings comprising two nucleotides each and on the 3′ side by wings comprising five nucleotides each. Each nucleotide in the 5′ wing segment and each nucleotide in the 3′ wing segment has a 2′-MOE modification. The internucleoside linkages throughout each gapmer are phosphorothioate (P═S) linkages. All cytosine residues throughout each gapmer are 5-methylcytosines. […]

AAGTCGACTAAGGCTGGCAC (antisense eA*eA*dG*dT*d[5mC]*dG*dA*d[5mC]*dT*dA*dA*dG*dG*d[5mC]*dT*eG*eG*e[5mC]*eA*e[5mC]) [Oligo ID 414063, 2-13-5 MOE gapmer]
inhibition of a TGF-beta1 mRNA (at least): ≥ 60%
